Assay results taken from the supplement of paper PMC10849652.
The other results are listed elsewhere or left out.

Sequences of proteins named here, by UniProt entry; tags and fusion partners are left off. A change or cut given only in a name is not applied to a line headed by its entry.
UniProt Q9P2J5: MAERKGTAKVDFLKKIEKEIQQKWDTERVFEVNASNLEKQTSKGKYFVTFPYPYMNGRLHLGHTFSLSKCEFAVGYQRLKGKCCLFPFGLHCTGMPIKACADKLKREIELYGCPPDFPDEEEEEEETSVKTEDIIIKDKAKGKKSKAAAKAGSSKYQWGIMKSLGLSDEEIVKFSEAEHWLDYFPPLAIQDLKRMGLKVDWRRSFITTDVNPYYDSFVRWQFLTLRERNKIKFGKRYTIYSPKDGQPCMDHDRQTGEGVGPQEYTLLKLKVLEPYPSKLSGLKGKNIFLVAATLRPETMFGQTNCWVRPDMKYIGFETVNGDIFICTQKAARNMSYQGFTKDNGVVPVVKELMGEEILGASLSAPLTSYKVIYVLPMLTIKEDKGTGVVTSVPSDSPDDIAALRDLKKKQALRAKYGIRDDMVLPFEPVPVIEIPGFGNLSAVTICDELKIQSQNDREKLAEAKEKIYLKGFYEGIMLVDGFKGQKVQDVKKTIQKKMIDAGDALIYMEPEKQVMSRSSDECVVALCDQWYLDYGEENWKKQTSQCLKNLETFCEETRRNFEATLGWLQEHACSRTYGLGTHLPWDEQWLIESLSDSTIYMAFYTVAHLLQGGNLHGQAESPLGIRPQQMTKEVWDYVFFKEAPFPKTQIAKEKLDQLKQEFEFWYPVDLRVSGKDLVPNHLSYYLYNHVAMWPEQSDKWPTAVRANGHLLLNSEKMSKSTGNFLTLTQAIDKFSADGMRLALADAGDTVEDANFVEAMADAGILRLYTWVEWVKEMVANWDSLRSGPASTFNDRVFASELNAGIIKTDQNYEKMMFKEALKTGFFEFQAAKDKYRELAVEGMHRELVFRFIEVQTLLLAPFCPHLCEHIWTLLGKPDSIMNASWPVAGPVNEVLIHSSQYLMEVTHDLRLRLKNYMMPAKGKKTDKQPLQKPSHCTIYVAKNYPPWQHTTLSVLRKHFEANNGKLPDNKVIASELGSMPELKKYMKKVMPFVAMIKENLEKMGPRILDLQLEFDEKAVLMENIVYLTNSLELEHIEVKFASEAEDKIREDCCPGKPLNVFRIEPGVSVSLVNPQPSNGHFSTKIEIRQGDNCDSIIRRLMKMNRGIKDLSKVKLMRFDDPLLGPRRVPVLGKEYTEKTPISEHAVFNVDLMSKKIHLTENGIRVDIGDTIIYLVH
UniProt O94898: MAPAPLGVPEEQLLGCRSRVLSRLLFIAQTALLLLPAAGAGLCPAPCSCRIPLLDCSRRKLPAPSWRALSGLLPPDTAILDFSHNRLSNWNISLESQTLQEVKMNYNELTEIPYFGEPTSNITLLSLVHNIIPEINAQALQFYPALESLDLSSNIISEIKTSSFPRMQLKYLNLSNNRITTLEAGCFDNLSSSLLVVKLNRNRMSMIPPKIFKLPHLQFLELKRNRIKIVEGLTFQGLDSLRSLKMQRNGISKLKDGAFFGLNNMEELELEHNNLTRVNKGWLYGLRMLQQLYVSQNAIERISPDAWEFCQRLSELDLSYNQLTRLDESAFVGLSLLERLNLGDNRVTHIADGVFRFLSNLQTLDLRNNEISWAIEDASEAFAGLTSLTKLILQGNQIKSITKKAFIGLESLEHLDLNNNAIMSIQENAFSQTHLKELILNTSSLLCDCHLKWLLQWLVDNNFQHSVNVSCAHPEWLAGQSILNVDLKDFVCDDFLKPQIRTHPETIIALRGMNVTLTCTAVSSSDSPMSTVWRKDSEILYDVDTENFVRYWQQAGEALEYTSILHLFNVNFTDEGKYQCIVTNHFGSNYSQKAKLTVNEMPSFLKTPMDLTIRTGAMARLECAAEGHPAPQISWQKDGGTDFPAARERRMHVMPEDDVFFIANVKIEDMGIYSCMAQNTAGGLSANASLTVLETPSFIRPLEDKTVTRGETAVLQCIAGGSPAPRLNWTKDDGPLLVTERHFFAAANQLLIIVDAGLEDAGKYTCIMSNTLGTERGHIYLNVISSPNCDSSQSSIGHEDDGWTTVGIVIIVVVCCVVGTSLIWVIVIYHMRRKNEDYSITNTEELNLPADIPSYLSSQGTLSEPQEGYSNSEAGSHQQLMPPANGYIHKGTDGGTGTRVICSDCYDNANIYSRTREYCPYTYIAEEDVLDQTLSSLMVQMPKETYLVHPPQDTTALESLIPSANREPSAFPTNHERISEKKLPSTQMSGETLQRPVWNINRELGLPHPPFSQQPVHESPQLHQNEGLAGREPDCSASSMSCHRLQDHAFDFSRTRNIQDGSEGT
UniProt Q12907: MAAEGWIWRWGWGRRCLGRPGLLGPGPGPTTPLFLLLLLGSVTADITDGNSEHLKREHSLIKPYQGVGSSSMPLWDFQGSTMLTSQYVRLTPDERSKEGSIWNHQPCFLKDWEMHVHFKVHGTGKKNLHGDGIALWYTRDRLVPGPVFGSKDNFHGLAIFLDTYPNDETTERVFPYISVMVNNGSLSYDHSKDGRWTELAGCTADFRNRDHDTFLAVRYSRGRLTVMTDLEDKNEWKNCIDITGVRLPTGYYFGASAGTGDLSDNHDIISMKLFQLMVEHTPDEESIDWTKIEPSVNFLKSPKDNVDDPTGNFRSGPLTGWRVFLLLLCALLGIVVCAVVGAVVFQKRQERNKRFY
UniProt Q9C0E8: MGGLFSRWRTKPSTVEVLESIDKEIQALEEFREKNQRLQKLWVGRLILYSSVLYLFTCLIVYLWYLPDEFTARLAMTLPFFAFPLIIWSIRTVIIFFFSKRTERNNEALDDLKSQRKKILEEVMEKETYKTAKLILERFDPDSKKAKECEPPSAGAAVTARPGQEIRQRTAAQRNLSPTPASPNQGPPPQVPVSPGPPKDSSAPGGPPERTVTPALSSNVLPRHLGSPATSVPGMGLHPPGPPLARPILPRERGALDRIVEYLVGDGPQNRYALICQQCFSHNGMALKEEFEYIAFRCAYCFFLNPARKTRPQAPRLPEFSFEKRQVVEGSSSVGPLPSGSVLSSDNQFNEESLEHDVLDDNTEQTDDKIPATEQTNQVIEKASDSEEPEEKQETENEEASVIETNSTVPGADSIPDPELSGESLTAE
UniProt P25791: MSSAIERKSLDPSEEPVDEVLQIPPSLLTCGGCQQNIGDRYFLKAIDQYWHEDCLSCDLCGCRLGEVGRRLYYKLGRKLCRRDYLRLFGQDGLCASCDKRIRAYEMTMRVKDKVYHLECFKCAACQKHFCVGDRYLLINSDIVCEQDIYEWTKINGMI
UniProt Q9UIC8: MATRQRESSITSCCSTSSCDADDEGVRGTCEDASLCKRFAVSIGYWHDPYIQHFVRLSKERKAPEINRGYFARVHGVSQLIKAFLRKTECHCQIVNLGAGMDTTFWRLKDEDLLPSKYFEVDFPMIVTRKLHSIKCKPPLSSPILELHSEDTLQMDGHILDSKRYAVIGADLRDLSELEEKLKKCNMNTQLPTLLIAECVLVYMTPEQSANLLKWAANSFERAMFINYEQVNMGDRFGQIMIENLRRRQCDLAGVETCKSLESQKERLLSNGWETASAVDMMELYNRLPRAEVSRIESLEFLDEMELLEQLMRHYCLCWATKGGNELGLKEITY
UniProt P49257: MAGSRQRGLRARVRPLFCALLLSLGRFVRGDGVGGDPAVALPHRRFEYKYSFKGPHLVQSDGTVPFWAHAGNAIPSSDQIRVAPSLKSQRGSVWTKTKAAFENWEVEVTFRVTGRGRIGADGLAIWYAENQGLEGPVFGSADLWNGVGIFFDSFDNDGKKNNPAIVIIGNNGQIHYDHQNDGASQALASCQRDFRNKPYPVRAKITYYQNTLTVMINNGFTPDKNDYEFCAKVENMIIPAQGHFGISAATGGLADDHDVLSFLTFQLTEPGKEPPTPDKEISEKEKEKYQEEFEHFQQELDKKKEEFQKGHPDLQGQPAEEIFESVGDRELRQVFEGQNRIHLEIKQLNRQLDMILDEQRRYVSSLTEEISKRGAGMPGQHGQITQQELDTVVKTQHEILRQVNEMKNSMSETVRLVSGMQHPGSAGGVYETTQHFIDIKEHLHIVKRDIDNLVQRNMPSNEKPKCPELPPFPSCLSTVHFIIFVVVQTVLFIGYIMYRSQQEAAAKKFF
UniProt Q6P1A2: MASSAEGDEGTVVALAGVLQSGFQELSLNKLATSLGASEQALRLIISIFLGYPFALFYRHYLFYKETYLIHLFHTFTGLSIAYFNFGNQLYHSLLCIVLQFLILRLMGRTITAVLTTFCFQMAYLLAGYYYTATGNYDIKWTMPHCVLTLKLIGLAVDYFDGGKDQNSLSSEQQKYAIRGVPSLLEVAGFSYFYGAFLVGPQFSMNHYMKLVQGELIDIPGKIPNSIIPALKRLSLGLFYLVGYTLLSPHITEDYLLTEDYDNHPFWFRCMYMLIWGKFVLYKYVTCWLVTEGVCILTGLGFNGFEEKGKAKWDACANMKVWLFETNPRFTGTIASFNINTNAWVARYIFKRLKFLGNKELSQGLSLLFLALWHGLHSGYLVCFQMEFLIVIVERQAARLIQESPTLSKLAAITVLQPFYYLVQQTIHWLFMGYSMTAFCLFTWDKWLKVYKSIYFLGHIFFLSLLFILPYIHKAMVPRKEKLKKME
UniProt Q71RC2, whole entry, looked up: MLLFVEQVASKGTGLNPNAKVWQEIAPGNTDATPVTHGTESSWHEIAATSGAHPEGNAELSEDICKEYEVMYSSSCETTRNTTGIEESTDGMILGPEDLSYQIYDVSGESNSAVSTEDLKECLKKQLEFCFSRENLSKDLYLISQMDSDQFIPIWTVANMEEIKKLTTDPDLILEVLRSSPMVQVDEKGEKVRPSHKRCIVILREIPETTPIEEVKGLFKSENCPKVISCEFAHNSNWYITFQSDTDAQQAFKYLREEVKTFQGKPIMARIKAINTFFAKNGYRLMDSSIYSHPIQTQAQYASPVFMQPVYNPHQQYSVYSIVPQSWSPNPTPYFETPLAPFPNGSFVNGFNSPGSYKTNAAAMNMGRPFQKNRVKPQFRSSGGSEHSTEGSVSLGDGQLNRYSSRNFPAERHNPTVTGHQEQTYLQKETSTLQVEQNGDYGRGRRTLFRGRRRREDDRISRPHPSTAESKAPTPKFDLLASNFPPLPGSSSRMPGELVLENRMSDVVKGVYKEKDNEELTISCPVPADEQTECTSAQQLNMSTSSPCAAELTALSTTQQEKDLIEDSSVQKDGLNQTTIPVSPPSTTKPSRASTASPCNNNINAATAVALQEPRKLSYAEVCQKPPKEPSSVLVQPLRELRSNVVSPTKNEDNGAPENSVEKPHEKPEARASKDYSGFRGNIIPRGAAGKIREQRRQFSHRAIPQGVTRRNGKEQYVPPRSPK
UniProt Q16773: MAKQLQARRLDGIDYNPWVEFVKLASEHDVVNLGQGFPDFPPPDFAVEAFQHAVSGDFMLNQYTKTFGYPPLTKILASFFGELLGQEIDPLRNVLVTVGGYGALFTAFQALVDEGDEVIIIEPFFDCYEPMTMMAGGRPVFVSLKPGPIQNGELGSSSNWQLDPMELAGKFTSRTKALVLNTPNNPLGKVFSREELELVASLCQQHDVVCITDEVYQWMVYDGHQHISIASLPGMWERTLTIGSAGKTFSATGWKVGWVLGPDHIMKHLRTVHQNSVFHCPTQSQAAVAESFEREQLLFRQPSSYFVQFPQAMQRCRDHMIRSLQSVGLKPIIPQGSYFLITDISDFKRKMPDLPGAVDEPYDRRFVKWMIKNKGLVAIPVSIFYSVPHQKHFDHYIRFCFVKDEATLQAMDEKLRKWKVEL
UniProt Q9NUN5: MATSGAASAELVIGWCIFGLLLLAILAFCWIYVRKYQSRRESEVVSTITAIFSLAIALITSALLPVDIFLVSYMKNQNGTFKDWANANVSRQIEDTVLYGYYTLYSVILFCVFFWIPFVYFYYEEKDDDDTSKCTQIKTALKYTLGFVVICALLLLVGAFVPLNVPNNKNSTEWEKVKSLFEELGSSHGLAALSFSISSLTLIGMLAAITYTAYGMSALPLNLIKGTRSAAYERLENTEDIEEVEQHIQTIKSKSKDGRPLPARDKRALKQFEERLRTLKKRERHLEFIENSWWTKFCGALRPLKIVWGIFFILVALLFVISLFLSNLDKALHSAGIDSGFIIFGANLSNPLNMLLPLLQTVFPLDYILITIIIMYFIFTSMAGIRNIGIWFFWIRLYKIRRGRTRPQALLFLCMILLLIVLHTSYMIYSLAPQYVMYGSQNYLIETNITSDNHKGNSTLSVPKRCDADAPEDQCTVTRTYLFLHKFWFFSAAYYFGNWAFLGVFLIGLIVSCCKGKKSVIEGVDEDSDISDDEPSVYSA
UniProt Q96BZ8: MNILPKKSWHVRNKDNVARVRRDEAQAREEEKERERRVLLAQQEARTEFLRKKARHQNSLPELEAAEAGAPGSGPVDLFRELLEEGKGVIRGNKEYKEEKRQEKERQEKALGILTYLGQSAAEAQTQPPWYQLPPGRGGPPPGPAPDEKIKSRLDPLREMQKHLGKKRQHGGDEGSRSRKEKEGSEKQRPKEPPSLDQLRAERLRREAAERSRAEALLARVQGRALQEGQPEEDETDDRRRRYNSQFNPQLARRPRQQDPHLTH

What was measured:
Assay in all cases: log2 fold change, soluble protein after heating vs DMSO (PISA); higher = thermal stabilisation; K562 cells, 10 uM, 30 min; active = over 0.2 and 3.5 SD of the protein, either way, in both replicates (recomputed)
bafetinib = compound: Cc1ccc(NC(=O)c2ccc(CN3CC[C@H](N(C)C)C3)c(C(F)(F)F)c2)cc1Nc1nccc(-c2cncnc2)n1 [bafetinib]
Outline: (§1)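 Quantification of soluble protein used TMTpro 16plex LC-MS/MS, with channel sums equalised. Samples were the supernatant after 21,000xg for 90 min of pooled aliquots from K562 cells (2×10^6 cells/mL) treated with 10 μM compound for 30 min, heated for 3 min over 48°C-58°C, and extracted in PBS with 0.5% NP-40 at 4°C. Values, from duplicates, describe thermal stability against control samples on a log2 fold-change scale.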

[1] = compound: Cc1cccc(CC(=O)N2CCc3c2ccc(-c2cn(C)c4ncnc(N)c24)c3F)n1
Outline: as §1

nilotinib = compound: Cc1cn(-c2cc(NC(=O)c3ccc(C)c(Nc4nccc(-c5cccnc5)n4)c3)cc(C(F)(F)F)c2)cn1 [nilotinib]
Outline: as §1

[2] = compound: Cc1nc(Nc2n[nH]c3c2CN(C(=O)N[C@H](CN(C)C)c2ccccc2)C3(C)C)c2sccc2n1
Outline: as §1

dasatinib = compound: Cc1nc(Nc2ncc(C(=O)Nc3c(C)cccc3Cl)s2)cc(N2CCN(CCO)CC2)n1 [dasatinib]
Outline: as §1

[3] = compound: Cc1ncc(-c2ccnc(Nc3ccc(S(C)(=O)=O)cc3)n2)n1C(C)C
Outline: as §1

[4] = compound: Cn1cc(-c2ccc3c(c2)CCN3C(=O)Cc2cccc(C(F)(F)F)c2)c2c(N)ncnc21
Outline: as §1

[5] = compound: Cn1cc(-c2ccc3nnc(C(F)(F)c4ccc5ncccc5c4)n3n2)cn1
Outline: as §1

tipifarnib = compound: Cn1cncc1[C@@](N)(c1ccc(Cl)cc1)c1ccc2c(c1)c(-c1cccc(Cl)c1)cc(=O)n2C [tipifarnib]
Outline: as §1

mubritinib = compound: FC(F)(F)c1ccc(/C=C/c2nc(COc3ccc(CCCCn4ccnn4)cc3)co2)cc1 [mubritinib]
Outline: as §1

[6] = compound: NC(=O)Nc1cc(-c2cccc(F)c2)sc1C(=O)N[C@H]1CCCNC1
Outline: as §1

[7] = compound: NC(=O)c1cnc(N[C@@H]2CCCC[C@@H]2N)nc1Nc1cccc(-n2nccn2)c1
Outline: as §1

[8] = compound: NC1(c2ccc(-c3nc4ccn5c(=O)[nH]nc5c4cc3-c3ccccc3)cc2)CCC1
Outline: as §1

[9] = compound: NCC(=O)Nc1ccc(-n2nc(C(F)(F)F)cc2-c2ccc3c(ccc4ccccc43)c2)cc1
Outline: as §1

entinostat = compound: Nc1ccccc1NC(=O)c1ccc(CNC(=O)OCc2cccnc2)cc1 [entinostat]
Outline: as §1

vorinostat = compound: O=C(CCCCCCC(=O)Nc1ccccc1)NO [vorinostat]
Outline: as §1

citarinostat = compound: O=C(CCCCCCNC(=O)c1cnc(N(c2ccccc2)c2ccccc2Cl)nc1)NO [citarinostat]
Outline: as §1

silmitasertib = compound: O=C(O)c1ccc2c(c1)nc(Nc1cccc(Cl)c1)c1ccncc12 [silmitasertib]
Outline: as §1

[10] = compound: O=C1NC(=O)C(c2cnc3ccccn23)=C1c1cn2c3c(cc(F)cc13)CN(C(=O)N1CCCCC1)CC2
Outline: as §1

[11] = compound: c1cc(OCCN2CCCCC2)cc(-c2n[nH]c3ccc(-c4nnc[nH]4)cc23)c1
Outline: as §1

| Target | log2 fold change (bafetinib) | log2 fold change [1] | log2 fold change (nilotinib) | log2 fold change [2] | log2 fold change (dasatinib) | log2 fold change [3] | log2 fold change [4] | log2 fold change [5] | log2 fold change (tipifarnib) | log2 fold change (mubritinib) | log2 fold change [6] | log2 fold change [7] | log2 fold change [8] | log2 fold change [9] | log2 fold change (entinostat) | log2 fold change (vorinostat) | log2 fold change (citarinostat) | log2 fold change (silmitasertib) | log2 fold change [10] | log2 fold change [11] |
| --- | --- | --- | --- | --- | --- | --- | --- | --- | --- | --- | --- | --- | --- | --- | --- | --- | --- | --- | --- | --- |
| LARS (UniProt Q9P2J5) | inactive: 0.064 | inactive: 0.02 | inactive: -0.096 | inactive: -0.018 | inactive: 0.018 | inactive: 0.036 | inactive: -0.161 | inactive: -0.129 | inactive: 0.056 | inactive: -0.125 | inactive: 0.117 | inactive: -0.007 | inactive: 0.101 | inactive: 0.059 | inactive: 0.025 | inactive: 0.003 | inactive: -0.017 | inactive: 0.158 | inactive: 0.226 | inactive: -0.138 |
| LEO1 (UniProt Q8WVC0) | inactive: -0.003 | inactive: 0.008 | inactive: -0.125 | inactive: -0.045 | inactive: 0.049 | inactive: -0.094 | inactive: -0.026 | inactive: 0.023 | inactive: -0.009 | inactive: 0.035 | inactive: 0.003 | inactive: -0.06 | inactive: -0.028 | inactive: -0.11 | inactive: 0.005 | inactive: 0.088 | inactive: 0.009 | inactive: 0.068 | inactive: -0.153 | inactive: -0.055 |
| LRIG2 (UniProt O94898) | inactive: -0.022 | inactive: -0.142 | inactive: -0.077 | inactive: -0.145 | inactive: -0.032 | inactive: 0.224 | inactive: 0.01 | inactive: -0.005 | inactive: 0.057 | inactive: -0.178 | inactive: -0.067 | inactive: -0.004 | inactive: -0.029 | inactive: -0.011 | inactive: 0.012 | inactive: -0.017 | inactive: -0.029 | inactive: 0.009 | inactive: 0.011 | inactive: 0.009 |
| LMAN2 (UniProt Q12907) | inactive: -0.072 | inactive: 0 | inactive: -0.008 | inactive: 0.008 | inactive: -0.025 | inactive: -0.004 | inactive: 0.017 | inactive: 0.041 | inactive: 0.027 | inactive: 0 | inactive: -0.034 | inactive: -0.035 | inactive: -0.098 | inactive: -0.019 | inactive: 0.007 | inactive: 0.017 | inactive: 0.037 | inactive: 0.021 | inactive: -0.032 | inactive: -0.034 |
| LNPK (UniProt Q9C0E8) | inactive: -0.081 | inactive: -0.035 | inactive: -0.001 | inactive: -0.009 | inactive: 0.052 | inactive: -0.007 | inactive: 0.025 | inactive: 0.011 | inactive: 0.054 | inactive: 0.072 | inactive: 0.011 | inactive: 0.01 | inactive: 0.009 | inactive: 0.014 | inactive: -0.013 | inactive: -0.006 | inactive: 0.002 | inactive: 0.072 | inactive: -0.051 | inactive: -0.006 |
| LMO2 isoform 3 (UniProt P25791) | inactive: 0.035 | inactive: 0.039 | inactive: -0.051 | inactive: 0.06 | inactive: -0.032 | inactive: -0.005 | inactive: 0.031 | inactive: -0.047 | inactive: -0.057 | inactive: 0.033 | inactive: 0.02 | inactive: -0.044 | inactive: 0.092 | inactive: -0.145 | inactive: -0.027 | inactive: 0.033 | inactive: -0.066 | inactive: 0.083 | inactive: 0.024 | inactive: 0.089 |
| LAMTOR4 (UniProt Q0VGL1) | inactive: -0.122 | inactive: 0.038 | inactive: -0.015 | inactive: -0.048 | inactive: 0.06 | inactive: -0.13 | inactive: -0.059 | inactive: 0.052 | inactive: 0.123 | inactive: 0.049 | inactive: -0.024 | inactive: -0.13 | inactive: -0.21 | inactive: -0.111 | inactive: 0.058 | inactive: -0.048 | inactive: 0.085 | inactive: 0.027 | inactive: -0.133 | inactive: -0.075 |
| LCMT1 (UniProt Q9UIC8) | inactive: -0.021 | inactive: 0.068 | inactive: -0.007 | inactive: -0.001 | inactive: -0.026 | inactive: -0.028 | inactive: 0.068 | inactive: 0.008 | inactive: -0.015 | inactive: 0.088 | inactive: -0.032 | inactive: -0.018 | inactive: -0.151 | inactive: 0.015 | inactive: 0.002 | inactive: 0.027 | inactive: 0.042 | inactive: -0.024 | inactive: -0.057 | inactive: 0.055 |
| LIMK2 isoform 3 (UniProt P53671) | inactive: -0.161 | inactive: -0.106 | inactive: -0.182 | inactive: 0.025 | inactive: 0.168 | inactive: -0.114 | inactive: -0.228 | inactive: -0.02 | inactive: 0.198 | inactive: -0.01 | inactive: -0.413 | inactive: -0.086 | inactive: -0.008 | inactive: -0.231 | inactive: -0.152 | inactive: -0.032 | inactive: -0.286 | inactive: 0.316 | inactive: -0.199 | inactive: -0.067 |
| LMAN1 (UniProt P49257) | inactive: -0.096 | inactive: 0.006 | inactive: -0.035 | inactive: 0.01 | inactive: -0.013 | inactive: -0.044 | inactive: -0.033 | inactive: 0.045 | inactive: -0.031 | inactive: -0.002 | inactive: 0.026 | inactive: -0.029 | inactive: -0.106 | inactive: -0.031 | inactive: 0.033 | inactive: 0.012 | inactive: -0.021 | inactive: 0.046 | inactive: -0.046 | inactive: 0.02 |
| LPCAT3 (UniProt Q6P1A2) | inactive: 0.108 | inactive: 0.063 | inactive: 0.044 | inactive: 0 | inactive: 0.051 | active: 0.363 | inactive: 0.153 | inactive: -0.015 | inactive: -0.216 | inactive: 0.034 | inactive: -0.074 | inactive: -0.105 | inactive: -0.185 | inactive: -0.229 | inactive: 0.044 | inactive: 0.024 | inactive: 0.087 | inactive: 0.05 | inactive: -0.091 | inactive: 0.072 |
| LARP4 isoform 4 (UniProt Q71RC2) | inactive: 0.022 | inactive: -0.027 | inactive: -0.073 | inactive: -0.147 | inactive: 0 | inactive: -0.028 | inactive: -0.078 | inactive: -0.103 | inactive: 0.071 | inactive: -0.046 | inactive: -0.034 | inactive: -0.094 | inactive: 0.084 | inactive: 0.048 | inactive: 0.037 | inactive: 0.133 | inactive: -0.004 | inactive: 0.043 | inactive: 0.009 | inactive: -0.116 |
| KYAT1 (UniProt Q16773) | inactive: -0.046 | inactive: -0.043 | inactive: 0.002 | inactive: 0.035 | inactive: -0.021 | inactive: 0.038 | inactive: -0.023 | inactive: 0.009 | inactive: -0.009 | inactive: 0.044 | inactive: 0.011 | inactive: -0.018 | inactive: -0.025 | inactive: -0.033 | inactive: -0.001 | inactive: 0.063 | inactive: 0.065 | inactive: -0.011 | inactive: -0.036 | inactive: -0.055 |
| LRIF1 (UniProt Q5T3J3) | inactive: 0.007 | inactive: -0.064 | inactive: 0.095 | inactive: 0.038 | inactive: -0.096 | inactive: -0.038 | inactive: 0.055 | inactive: 0.1 | inactive: 0.102 | inactive: -0.044 | inactive: 0.005 | inactive: 0.069 | inactive: 0.125 | inactive: 0.051 | inactive: -0.004 | inactive: -0.056 | inactive: 0.004 | inactive: -0.119 | inactive: 0.011 | inactive: -0.016 |
| LMBRD1 (UniProt Q9NUN5) | inactive: -0.065 | inactive: 0.01 | inactive: -0.006 | inactive: -0.062 | inactive: 0.064 | inactive: 0.026 | inactive: -0.139 | inactive: 0.014 | inactive: -0.156 | inactive: 0.08 | inactive: 0.006 | inactive: 0.046 | inactive: -0.243 | inactive: -0.162 | inactive: 0.099 | inactive: 0.048 | inactive: 0.048 | inactive: -0.028 | inactive: -0.003 | inactive: 0.049 |
| LENG1 (UniProt Q96BZ8) | inactive: -0.027 | inactive: -0.099 | inactive: 0.021 | inactive: 0.079 | inactive: 0.051 | inactive: -0.022 | inactive: 0.006 | inactive: 0.005 | inactive: 0.013 | inactive: -0.008 | inactive: 0.106 | inactive: -0.057 | inactive: 0.048 | inactive: -0.011 | inactive: 0.03 | inactive: -0.048 | inactive: -0.034 | inactive: -0.037 | inactive: -0.065 | inactive: -0.041 |

Some entries already given with just log2 fold change [3], log2 fold change (tipifarnib) and log2 fold change (mubritinib).
Target	log2 fold change [3]	log2 fold change (tipifarnib)	log2 fold change (mubritinib)
LRIG2 (UniProt O94898)	inactive: 0.224	inactive: 0.057	inactive: -0.178
LMO2 isoform 3 (UniProt P25791)	inactive: -0.005	inactive: -0.057	inactive: 0.033
